Laboratory results: PubChem BioAssay AID652272 (Drosophila RNAi Screening Center, 2013)
Screen: 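Genes whose knock-down decreases or increases Hedgehog reporter output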 (primary screen). System: Drosophila clone 8 (Cl8) cells. Reagents: long dsRNA against Drosophila genes. Measured: 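Firefly light from a Hedgehog-responsive ptc promoter reporter and Renilla reference light, both read on a plate reader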. Reading the numbers: firefly Hh reporter signal: higher = more ptc reporter light; Renilla reference signal: higher = more Renilla control light. Hit rule: 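Hit when the z-score averaged over two replicates is under -2 or over +3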. Meaning of the calls: active = hit: reporter lowered or raised; inactive = not a hit.
The screen tested about 21,000 reagents; below is a random part of those that have a named target and a result. Over the whole deposit, 503 (2.4%) are marked active. 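Raw plate light values, not normalised; calls rest on replicate z-scores that were not deposited; hits include reporter decreases as well as increases.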 The numbers tell different reagents against one gene apart. Names joined by + are all predicted targets of the reagent. Not stated in the record: the amount of reagent, the time to read-out.

target	reagent no.	firefly Hh reporter signal, replicate 1	firefly Hh reporter signal, replicate 2	Renilla reference signal, replicate 1	Renilla reference signal, replicate 2	call
CG11911	1	89184	49908	3508	2116	inactive
CG13875	1	85296	44935	2390	3658	inactive
CG12728	1	78490	67720	2253	1648	inactive
Indy-2 + CG33934	1	74073	78802	3696	3515	inactive
Indy-2 + CG33934	2	4.93e5	1.41e5	27504	4112	inactive
CG9812	1	94053	39962	2665	4120	inactive
CG12391	1	61408	66617	2800	2423	inactive
mub (mushroom-body expressed)	1	1.06e5	87915	4196	3369	inactive
PGRP-LD + Cralbp + Pmi	1	55545	44515	6876	3952	inactive
CG13055	1	1.43e5		5232	3728	inactive
CG32196	1	1.67e5		3553		inactive
phr (photorepair)	1	77042	39923	1977	2960	inactive
a6	1	1.16e5	90240	2881	3245	inactive
CG43333	1	1.15e5	49987	2675	4451	inactive
Prp39 (pre-mRNA processing factor 39)	1	83702	74780	1523	2392	inactive
CG17929	1	96007	1.01e5	2139	2216	inactive
CG2993	1	73418	95072	2832	3056	inactive
CG2993	2	1.29e5	92000	4730	3922	inactive
Alp2 (Alkaline phosphatase 2)	1	1.69e5	63624	3693	5655	inactive
CG11436	1	81981	1.09e5	1245	3114	inactive
Traf4 (TNF-receptor-associated factor 4)	1	66407	51277	933	4529	inactive
Traf4 (TNF-receptor-associated factor 4)	2	69399	67515	3536	2810	inactive
mthl12 (methuselah-like 12)	1	37460	1.60e5	7107	3640	inactive
mRpL52 (mitochondrial ribosomal protein L52)	1	1.14e5	67254	2183	5085	inactive
Tlk (Tousled-like kinase)	1	4.29e5	2.82e5	21037	5362	inactive
Tlk (Tousled-like kinase)	2	56810	1.59e5	1636	5366	inactive
Tlk (Tousled-like kinase)	3	38045	39354	865	2267	inactive
xmas-1 (retired record)	1	68221	2.18e5	2055	8181	inactive
Mkp + CG34140	1	1.06e5	58916	4672	2602	inactive
Vps16B (Vacuolar protein sorting 16B)	1	92292	1.09e5	2336	5925	inactive

Part of the list above, reformatted.
{"target": "mub (mushroom-body expressed)", "reagent no.": 1, "firefly Hh reporter signal, replicate 1": 1.06e5, "firefly Hh reporter signal, replicate 2": 87915, "Renilla reference signal, replicate 1": 4196, "Renilla reference signal, replicate 2": 3369, "call": "inactive"}
{"target": "PGRP-LD + Cralbp + Pmi", "reagent no.": 1, "firefly Hh reporter signal, replicate 1": 55545, "firefly Hh reporter signal, replicate 2": 44515, "Renilla reference signal, replicate 1": 6876, "Renilla reference signal, replicate 2": 3952, "call": "inactive"}
{"target": "CG13055", "reagent no.": 1, "firefly Hh reporter signal, replicate 1": 1.43e5, "Renilla reference signal, replicate 1": 5232, "Renilla reference signal, replicate 2": 3728, "call": "inactive"}
{"target": "CG32196", "reagent no.": 1, "firefly Hh reporter signal, replicate 1": 1.67e5, "Renilla reference signal, replicate 1": 3553, "call": "inactive"}

More reagents follow.
target	reagent no.	firefly Hh reporter signal, replicate 1	firefly Hh reporter signal, replicate 2	Renilla reference signal, replicate 1	Renilla reference signal, replicate 2	call
CG11825	1	1.11e5	62048	2968	5302	inactive
Pex13 (Peroxin 13)	1	81547	58892	3752	2723	inactive
Gfat1 (Glutamine:fructose-6-phosphate aminotransferase 1)	1	64066	1.87e5	1431	7552	inactive
CG14252	1	1.04e5	84135	3716	2077	inactive
CG14395	1	60976	95546	1920	2666	inactive
grass (Gram-positive Specific Serine protease)	1	80932	95318	2744	2628	inactive
cora (coracle)	1	71046	44123	1213	3128	inactive
CG4972	1	1.04e5	43992	2809	4259	inactive
CG4098	1	1.73e5		5517	5125	inactive
hob (hobbit)	1	80416	46097	3053	1894	inactive
CheB74a (Chemosensory protein B 74a)	1	2.34e5		4982		inactive
CG15803	1	6.02e5	85219	36554	2087	inactive
CG33223	1	4.57e5	1.57e5	31867	4272	inactive
CAH16 (Carbonic anhydrase 16)	1	72595	76449	2633	1633	inactive
MED25 (Mediator complex subunit 25)	1	39398	25644	2592	1456	active
RunxB (Runt related B)	1	7.00e5	2.84e5	42679	6933	inactive
RunxB (Runt related B)	2	81000	2.25e5	3033	7697	inactive
RunxB (Runt related B)	3	48997	34552	1914	1946	inactive
CG6443	1	49169	32809	2061	1456	inactive
VhaPPA1-2 (Vacuolar H[+] ATPase PPA1 subunit 2)	1	96663	1.12e5	2444	2741	inactive
eIF4A (eukaryotic translation initiation factor 4A)	1	68052	25347	1565	2051	inactive
RpS15 (Ribosomal protein S15)	1	31349	19030	1653	2263	active
BuGZ (Bub3 interacting GLEBS and Zinc finger domain protein)	1	82987	37344	4264	2170	inactive
BuGZ (Bub3 interacting GLEBS and Zinc finger domain protein)	2	1.34e5	51101	3453	4952	inactive
CG13708	1	72387	46404	7383	3394	inactive
unc (uncoordinated)	1	1.36e5	2.36e5	5361	10476	inactive
Hsp70Aa + Hsp70Bb + Hsp70Ba + 3 more	1	84973	75622	4284	2452	inactive
